Percent effect of library compounds

Amino acid sequences for entries named in this document (tags omitted). Residues count along the entry.
UniProt Q4DA54, 1-478: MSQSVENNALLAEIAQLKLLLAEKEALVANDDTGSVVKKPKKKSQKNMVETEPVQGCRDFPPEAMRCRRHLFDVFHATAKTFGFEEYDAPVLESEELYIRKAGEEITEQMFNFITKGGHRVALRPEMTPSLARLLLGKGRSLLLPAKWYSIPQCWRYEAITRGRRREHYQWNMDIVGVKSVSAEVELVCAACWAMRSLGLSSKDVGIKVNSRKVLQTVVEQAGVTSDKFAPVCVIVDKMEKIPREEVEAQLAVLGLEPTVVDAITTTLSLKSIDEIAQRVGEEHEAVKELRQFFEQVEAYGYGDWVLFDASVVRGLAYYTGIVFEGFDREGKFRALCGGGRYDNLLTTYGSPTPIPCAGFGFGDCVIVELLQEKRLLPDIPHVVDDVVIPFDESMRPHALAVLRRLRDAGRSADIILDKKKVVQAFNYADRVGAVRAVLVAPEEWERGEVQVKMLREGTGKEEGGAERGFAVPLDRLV
UniProt P9WNZ1, whole entry: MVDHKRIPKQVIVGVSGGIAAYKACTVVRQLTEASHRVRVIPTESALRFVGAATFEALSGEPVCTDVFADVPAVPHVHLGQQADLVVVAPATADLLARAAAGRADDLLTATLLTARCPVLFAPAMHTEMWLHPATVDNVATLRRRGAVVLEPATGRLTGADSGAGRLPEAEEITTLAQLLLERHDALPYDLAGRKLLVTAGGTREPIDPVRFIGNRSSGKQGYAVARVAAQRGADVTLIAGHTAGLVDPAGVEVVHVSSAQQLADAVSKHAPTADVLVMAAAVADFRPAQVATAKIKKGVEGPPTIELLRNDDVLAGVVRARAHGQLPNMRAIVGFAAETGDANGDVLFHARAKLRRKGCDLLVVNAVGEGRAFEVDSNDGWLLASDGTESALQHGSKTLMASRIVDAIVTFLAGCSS

TcHisRS: 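Enzyme assay of histidyl-tRNA synthetase; the read-out is not stated. Target: Histidine-tRNA ligase, Trypanosoma cruzi CL Brener (UniProt Q4DA54). Compounds at 30 µM. Higher reads as stronger inhibition (inferred: compounds with an IC50 in retests scored well above the rest). About 69,000 compounds were tested under these conditions; 0.045% (about 31) showed 50% or more at least once.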
CoaBC: 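Enzyme assay of CoaBC with a phosphate dye (Biomol Green) read at 650 nm. Target: Coenzyme A biosynthesis protein CoaBC, Mycobacterium tuberculosis (UniProt P9WNZ1). Concentration: 30 µM. Direction is inferred from only a few compounds that gave an IC50; most scored high, so higher reads as stronger inhibition. Most strong results did not repeat in a second test. About 67,000 compounds were tested under these conditions; 0.06% (about 40) showed 50% or more at least once.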

Values are the deposited “Percent Effect”, in %.
The controls that fix the scale are not given in the record; negative values are as filed.
The compounds are a random part of those screened.
A dash means the value is not listed here; it may have been measured.

compound | TcHisRS | CoaBC
Cc1ccsc1CN1CCCC(CNC(=O)c2ccc(N)nc2)C1 (centres undefined) | 4.545 | 2.355
Cc1cc(NC(=O)c2ccc(C)c(F)c2)[nH]n1 | 8.38 | -9.274
COc1ccnc(CN2CCCC(CCc3ccc(F)cc3)C2)c1OC (centres undefined) | 10.63 | 12.05
CN(C)c1ccc(CN2CCN(c3ccc(C#N)cc3)C(=O)C2)cn1 | 9.091 | 3.65
Cc1ccc(NC2CCN(C(=O)Cc3csc(C)n3)CC2)nn1 | 6.767 | 0.1186
O=C1CC(c2ccncc2)C2(CCN(C(=O)c3ccc[nH]3)CC2)N1 (centres undefined) | 3.867 | 2.571
CCn1ccnc1C1CCN(C(=O)Nc2ccc(OC)cc2)CC1 | 2.02 | -0.7673
CN1CCN(CC2CC2)C(=O)c2cnc(N3CCC(CO)CC3)nc21 | 10.17 | 1.325
COCCNC(=O)N1CCC(NC(C)C)CC1 | -1.478 | 5.806
Cc1cnc(N2CCN(C)CC2)nc1-c1ccnn1C | 1.235 | 5.031
CCn1ccnc1CN(C)c1cc(N(C)C)ncn1 | 5.422 | -0.8537
CCn1nc(C)c(NC(=O)C(C)C)c1C | 6.878 | 6.517
CN(CC(=O)N1CCCC1Cn1cccn1)C1CC1 (centres undefined) | 0 | 3.599
O=C(O)c1cc(-c2ccncc2)cc(S(=O)(=O)N2CCCCCC2)c1 | 3.636 | 2.043
COc1ccc2c(c1)OCC(CNC(=O)c1ccc(=O)n(C)c1)C2 (centres undefined) | 0.8264 | -12.72
COc1ccc(F)cc1C(=O)N1CC(c2ccncc2)C1 | 9.524 | -3.676
CC(=O)N1CCN(C(=O)NCCCN(C(C)C)S(C)(=O)=O)CC1 | 6.349 | 9.298
Cc1n[nH]c(C)c1-c1nccnc1CC1CCN(S(C)(=O)=O)C1 (centres undefined) | -4.255 | 0.7353
Cc1cc(-c2nnn(CCNS(C)(=O)=O)n2)ccc1F | 0 | 5.376
Cc1ncsc1CCC(=O)N1CCn2cccc2C1c1cccnc1 (centres undefined) | 3.59 | 0.7453
CCOc1ccccc1Oc1ccc(CN)cn1 | 4.902 | 4.466
COCCN1C(=O)[C@]2(CC[C@@H]3CN(C(=O)NCC(C)C)C[C@@H]32)N=C1C | 1.622 | -4.695
CC(=O)NCCNc1cc(C)nc2cc(C)nn12 | 8.163 | -2.808
N#Cc1ccc(OCCNc2cccc(C(=O)N3CCOCC3)c2)cc1 | 1.674 | 13.64
Cn1cc(CN2CCc3ccc(=O)n(Cc4ccncc4)c3CC2)cn1 | 9.497 | 2.545
CN(Cc1cnn(C)c1)C(=O)CN1CCCC(Cn2cncn2)C1 (centres undefined) | 3.429 | 1.434
COc1ccc(-c2nc(CN3CCc4c(ncn4C)C3)cs2)cc1 | 17.56 | -0.2591
O=C(Cc1ccc(F)cc1)NCC1CCN(Cc2ccsc2)CC1 | 5.528 | 5.174
O=C(Nc1ccccc1F)C1=NN(c2ccccc2)C(=O)CN1 | 3.429 | 3.412
CC(=O)N1CCCC1c1nc(N(C)C)ncc1-c1ccccc1 (centres undefined) | 4.615 | -1.425
Nc1cccnc1N1CCC(c2ccccc2)CC1 | 11.46 | -4.373
CCCn1ncc(CN(CCN(C)C)Cc2ccsc2)c1C | 3.797 | 1.442
COCCN(C)C(C(=O)O)c1ccc(C)c(C)c1 (centres undefined) | 4.386 | -0.8631
COc1ccc(Cl)cc1S(=O)(=O)N(C)CC(=O)Nc1ccon1 | 0.4292 | -41.03
COCCOCCNS(=O)(=O)C1CS(=O)(=O)c2ccccc21 (centres undefined) | 3.896 | -
Cn1cc(CN2CC[C@H]3O[C@H](C(=O)NC4CC4)CC[C@H]32)c2ccccc21 | 5.747 | -3.055
O=C(NC1CC1)N1CCCC2(CCCCN2)C1 (centres undefined) | 9.709 | 1.272
Cc1nnc(CN2CCN(CC(O)c3cccc(F)c3)CC2)n1C (centres undefined) | -3.396 | 8.462
Cc1ccc(NC(=O)N2CCCN(C(N)=O)CC2)s1 | 4.211 | 0
CC(C)CNc1nnc(SC(C(=O)NCc2cccnc2)C(C)C)s1 (centres undefined) | 4.103 | 4.592
CNC(=O)CCc1cc(C)nc(C2CCCN2)c1 (centres undefined) | 0.5405 | -4.444
Cc1ccc(OCCN(C)S(=O)(=O)N2CCOCC2)cc1 | 5.419 | 1.935
CO[C@@H]1CC[C@@H](NS(=O)(=O)c2cn(C)nc2C)[C@H]1O | 14 | -0.6849
CS(=O)(=O)N[C@H]1CCO[C@]2(CCN(CC3CCOCC3)C2)C1 | 4.516 | 1.449
CCCS(=O)(=O)NCC(C)c1ccc(F)c(F)c1 (centres undefined) | 7.071 | 0
CCCc1ccc(CN2CCN(C(=O)CC(C)C)[C@@H]3CS(=O)(=O)C[C@@H]32)o1 | 0 | 4.968

Once more, the final 4:

{"compound": "CO[C@@H]1CC[C@@H](NS(=O)(=O)c2cn(C)nc2C)[C@H]1O", "TcHisRS": 14, "CoaBC": -0.6849}
{"compound": "CS(=O)(=O)N[C@H]1CCO[C@]2(CCN(CC3CCOCC3)C2)C1", "TcHisRS": 4.516, "CoaBC": 1.449}
{"compound": "CCCS(=O)(=O)NCC(C)c1ccc(F)c(F)c1", "stereo": "centres undefined", "TcHisRS": 7.071, "CoaBC": 0}
{"compound": "CCCc1ccc(CN2CCN(C(=O)CC(C)C)[C@@H]3CS(=O)(=O)C[C@@H]32)o1", "TcHisRS": 0, "CoaBC": 4.968}

Source: ChEMBL document CHEMBL3988442, “University of Dundee, Small-Polar-MMV Screening Library” (2021).